# From the supplement of paper PMC8728848
# This is one part of the list.
# B1: AT3G09350(27) (Arabidopsis thaliana), Q84J81 (protein)
# chain: MAKDGPNWDGLLKWSLSHADGTRPTRQLSEEDRKWFMEAMQSQTVDVVKRMKEITLVMQTPEQVLVEHGVTPEDIQDLLDELQEHVESIDMANDLHSIGGLVPLLSFLKNSHANIRAKAADVVSTIVQNNPRSQELVMETNALESLLSNFTSDTDIHARTQALGAISSLIRHNKPGVTAFKLANGYAGLRDALASDSVRFQRKALNLLQYLLQEDDSDRSIATGLGFPRVMMHLASSDDAEIREAALRGLLELSREKNDGSSSIDKSDEKLRQLLEERIKGITLMSQEDLETVKEERQLVDLLWSICYNEPSSLREKGLVVLPGEDALPPDVASKLFEPPLRASAANRNATEKKDEPMKLLGP
# Tests used:
# Test in all cases: glycan array binding signal (z-score within array); higher = stronger binding
# Settings in all cases: glycan notation: IUPAC condensed, linker removed
# [1] = biological target: Neu5Ac(a2-6)GlcNAc(b1-4)GlcNAc
# Outline: (§1)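 Negative Z-scores can be read as non-binding. The Z-score is calculated within each array and then averaged across arrays of one protein sequence at different concentrations or buffers and across linkers. Arrays, 3228 in all, were curated from the Consortium for Functional Glycomics database and kept only where the protein sequence was available.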
# [2] = biological target: Neu5Ac(a2-6)GlcNAc(b1-4)GlcNAc(b1-4)GlcNAc
# Outline: as §1
# Neu5Ac(a2-8)Neu5Ac = biological target: Neu5Ac(a2-8)Neu5Ac
# Outline: as §1
# [3] = biological target: Neu5Ac(a2-8)Neu5Ac(a2-3)Gal(b1-3)GalNAc(b1-4)[Neu5Ac(a2-3)]Gal(b1-4)Glc
# Outline: as §1
# [4] = biological target: Neu5Ac(a2-8)Neu5Ac(a2-3)Gal(b1-3)GalNAc(b1-4)[Neu5Ac(a2-8)Neu5Ac(a2-3)]Gal(b1-4)Glc
# Outline: as §1
# [5] = biological target: Neu5Ac(a2-8)Neu5Ac(a2-3)Gal(b1-4)Glc
# Outline: as §1
# [6] = biological target: Neu5Ac(a2-8)Neu5Ac(a2-3)Gal(b1-4)GlcNAc
# Outline: as §1
# [7] = biological target: Neu5Ac(a2-8)Neu5Ac(a2-3)[Gal(b1-3)GalNAc(b1-4)]Gal(b1-4)Glc
# Outline: as §1
# [8] = biological target: Neu5Ac(a2-8)Neu5Ac(a2-3)[GalNAc(b1-4)]Gal(b1-4)Glc
# Outline: as §1
# [9] = biological target: Neu5Ac(a2-8)Neu5Ac(a2-8)Neu5Ac
# Outline: as §1
# [10] = biological target: Neu5Ac(a2-8)Neu5Ac(a2-8)Neu5Ac(a2-3)Gal(b1-4)Glc
# Outline: as §1
# [11] = biological target: Neu5Ac(a2-8)Neu5Ac(a2-8)Neu5Ac(a2-3)[Gal(b1-3)GalNAc(b1-4)]Gal(b1-4)Glc
# Outline: as §1
# [12] = biological target: Neu5Ac(a2-8)Neu5Ac(a2-8)Neu5Ac(a2-3)[GalNAc(b1-4)]Gal(b1-4)Glc
# Outline: as §1
# [13] = biological target: Neu5Ac(a2-8)Neu5Ac(a2-8)Neu5Ac(a2-8)Neu5Ac(a2-3)[GalNAc(b1-4)]Gal(b1-4)Glc
# Outline: as §1
# [14] = biological target: Neu5Ac(a2-8)Neu5Gc(a2-3)Gal(b1-4)GlcNAc
# Outline: as §1
# [15] = biological target: Neu5Ac(b2-6)Gal(b1-4)GlcNAc
# Outline: as §1
# Neu5Ac(b2-6)GalNAc = biological target: Neu5Ac(b2-6)GalNAc
# Outline: as §1
# [16] = biological target: Neu5Ac9Ac(a2-3)Gal(b1-3)GlcNAc
# Outline: as §1
# [17] = biological target: Neu5Ac9Ac(a2-3)Gal(b1-4)GlcNAc
# Outline: as §1
# [18] = biological target: Neu5Ac9Ac(a2-6)Gal(b1-4)GlcNAc
# Outline: as §1
# [19] = biological target: Neu5Gc(a2-3)Gal(b1-3)GlcNAc
# Outline: as §1
# [20] = biological target: Neu5Gc(a2-3)Gal(b1-3)[Fuc(a1-4)]GlcNAc
# Outline: as §1
# Neu5Gc(a2-3)Gal(b1-4)Glc = biological target: Neu5Gc(a2-3)Gal(b1-4)Glc
# Outline: as §1
# [21] = biological target: Neu5Gc(a2-3)Gal(b1-4)GlcNAc
# Outline: as §1
# [22] = biological target: Neu5Gc(a2-3)Gal(b1-4)GlcNAc(b1-3)Gal(b1-4)GlcNAc(b1-2)Man(a1-3)[Neu5Gc(a2-3)Gal(b1-4)GlcNAc(b1-3)Gal(b1-4)GlcNAc(b1-2)Man(a1-6)]Man(b1-4)GlcNAc(b1-4)GlcNAc
# Outline: as §1
# [23] = biological target: Neu5Gc(a2-3)Gal(b1-4)[Fuc(a1-3)]GlcNAc
# Outline: as §1
# [24] = biological target: Neu5Gc(a2-6)Gal(b1-4)GlcNAc
# Outline: as §1
# Neu5Gc(a2-6)GalNAc = biological target: Neu5Gc(a2-6)GalNAc
# Outline: as §1
# [25] = biological target: Neu5Gc(a2-8)Neu5Ac(a2-3)Gal(b1-4)GlcNAc
# Outline: as §1
# [26] = biological target: Neu5Gc(a2-8)Neu5Gc(a2-3)Gal(b1-4)GlcNAc
# Outline: as §1
# [27] = biological target: Neu5Gc(a2-8)Neu5Gc(a2-3)Gal(b1-4)GlcNAc(b1-3)Gal(b1-4)GlcNAc
# Outline: as §1
# [28] = biological target: Neu5Gc(a2-8)Neu5Gc(a2-6)Gal(b1-4)GlcNAc
# Outline: as §1
# [29] = biological target: Neu5Gc(b2-6)Gal(b1-4)GlcNAc
# Outline: as §1
binder,measurement,setting,value
B1,glycan array binding signal (z-score),[1],-0.721
same,glycan array binding signal (z-score),[2],-0.499
same,glycan array binding signal (z-score),Neu5Ac(a2-8)Neu5Ac,0.54
same,glycan array binding signal (z-score),[3],-0.731
same,glycan array binding signal (z-score),[4],0.381
same,glycan array binding signal (z-score),[5],-0.427
same,glycan array binding signal (z-score),[6],-0.748
same,glycan array binding signal (z-score),[7],-0.074
same,glycan array binding signal (z-score),[8],-0.077
same,glycan array binding signal (z-score),[9],-0.349
same,glycan array binding signal (z-score),[10],-0.201
same,glycan array binding signal (z-score),[11],-0.064
same,glycan array binding signal (z-score),[12],0.721
same,glycan array binding signal (z-score),[13],-0.375
same,glycan array binding signal (z-score),[14],-0.282
same,glycan array binding signal (z-score),[15],0.639
same,glycan array binding signal (z-score),Neu5Ac(b2-6)GalNAc,-0.887
same,glycan array binding signal (z-score),[16],-0.448
same,glycan array binding signal (z-score),[17],0.004
same,glycan array binding signal (z-score),[18],-0.732
same,glycan array binding signal (z-score),[19],-0.279
same,glycan array binding signal (z-score),[20],-0.489
same,glycan array binding signal (z-score),Neu5Gc(a2-3)Gal(b1-4)Glc,0.999
same,glycan array binding signal (z-score),[21],-0.862
same,glycan array binding signal (z-score),[22],-0.865
same,glycan array binding signal (z-score),[23],-0.374
same,glycan array binding signal (z-score),[24],-0.12
same,glycan array binding signal (z-score),Neu5Gc(a2-6)GalNAc,-0.535
same,glycan array binding signal (z-score),[25],-0.317
same,glycan array binding signal (z-score),[26],-0.815
same,glycan array binding signal (z-score),[27],0.06
same,glycan array binding signal (z-score),[28],-0.645
same,glycan array binding signal (z-score),[29],-0.475

# Part of the list above, with tabs:
binder	measurement	setting	value
B1	glycan array binding signal (z-score)	[1]	-0.721
same	glycan array binding signal (z-score)	[2]	-0.499
same	glycan array binding signal (z-score)	Neu5Ac(a2-8)Neu5Ac	0.54
